Data published in paper PMC5426793.
No constants are given. Whether binding was seen depends on the method and setting. Binding seen in cells or lysates may run through a third protein. For part of these data: Binding calls can cover weak binding; strength is not graded here. Values belong to the substance of their own block, whether it stands above or below them.

By UniProt entry, the sequences of proteins in these tests, tags left out. Where a name states a change or a piece, a line headed by the entry shows the natural chain unless it says otherwise.
UniProt Q27J81: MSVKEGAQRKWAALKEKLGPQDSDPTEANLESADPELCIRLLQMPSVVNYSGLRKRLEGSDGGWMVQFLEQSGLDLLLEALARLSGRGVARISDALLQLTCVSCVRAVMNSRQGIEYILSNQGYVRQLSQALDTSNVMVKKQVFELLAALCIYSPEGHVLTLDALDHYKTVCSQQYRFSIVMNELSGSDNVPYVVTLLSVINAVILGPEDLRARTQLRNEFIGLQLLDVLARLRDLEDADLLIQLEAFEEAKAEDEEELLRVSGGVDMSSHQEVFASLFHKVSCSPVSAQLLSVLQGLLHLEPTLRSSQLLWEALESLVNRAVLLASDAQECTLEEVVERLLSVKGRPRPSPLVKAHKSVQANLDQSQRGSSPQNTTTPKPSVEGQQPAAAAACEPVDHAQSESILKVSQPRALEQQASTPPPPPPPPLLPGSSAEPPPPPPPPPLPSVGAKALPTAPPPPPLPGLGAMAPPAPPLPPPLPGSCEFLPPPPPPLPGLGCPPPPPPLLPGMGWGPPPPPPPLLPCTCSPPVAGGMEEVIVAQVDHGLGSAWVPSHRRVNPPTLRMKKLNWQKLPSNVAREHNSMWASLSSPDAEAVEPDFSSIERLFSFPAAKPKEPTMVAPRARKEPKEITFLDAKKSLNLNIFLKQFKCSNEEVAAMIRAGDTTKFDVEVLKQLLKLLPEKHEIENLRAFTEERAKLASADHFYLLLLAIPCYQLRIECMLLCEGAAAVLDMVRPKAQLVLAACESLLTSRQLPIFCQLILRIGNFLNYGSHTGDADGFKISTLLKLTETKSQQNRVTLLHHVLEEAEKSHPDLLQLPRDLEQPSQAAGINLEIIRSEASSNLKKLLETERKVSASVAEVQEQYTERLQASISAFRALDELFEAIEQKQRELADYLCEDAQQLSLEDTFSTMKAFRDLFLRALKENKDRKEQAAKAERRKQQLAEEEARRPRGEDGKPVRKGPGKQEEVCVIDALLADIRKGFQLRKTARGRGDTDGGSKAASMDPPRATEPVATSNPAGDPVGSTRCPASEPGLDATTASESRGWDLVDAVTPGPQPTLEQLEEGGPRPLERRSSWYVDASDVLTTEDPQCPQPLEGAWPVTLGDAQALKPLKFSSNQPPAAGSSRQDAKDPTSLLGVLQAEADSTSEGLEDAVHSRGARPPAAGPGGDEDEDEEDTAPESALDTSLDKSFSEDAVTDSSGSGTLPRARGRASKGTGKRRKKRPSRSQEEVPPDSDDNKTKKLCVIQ
UniProt O43791: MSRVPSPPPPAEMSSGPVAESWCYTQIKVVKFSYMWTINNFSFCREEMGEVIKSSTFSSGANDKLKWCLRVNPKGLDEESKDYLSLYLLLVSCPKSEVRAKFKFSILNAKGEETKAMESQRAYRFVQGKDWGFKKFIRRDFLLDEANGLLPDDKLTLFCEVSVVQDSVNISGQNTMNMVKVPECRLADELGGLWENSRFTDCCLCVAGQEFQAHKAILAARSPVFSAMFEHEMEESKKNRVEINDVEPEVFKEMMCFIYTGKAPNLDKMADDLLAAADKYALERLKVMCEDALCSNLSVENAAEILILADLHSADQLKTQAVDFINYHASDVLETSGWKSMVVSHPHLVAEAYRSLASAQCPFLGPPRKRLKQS
UniProt O15131: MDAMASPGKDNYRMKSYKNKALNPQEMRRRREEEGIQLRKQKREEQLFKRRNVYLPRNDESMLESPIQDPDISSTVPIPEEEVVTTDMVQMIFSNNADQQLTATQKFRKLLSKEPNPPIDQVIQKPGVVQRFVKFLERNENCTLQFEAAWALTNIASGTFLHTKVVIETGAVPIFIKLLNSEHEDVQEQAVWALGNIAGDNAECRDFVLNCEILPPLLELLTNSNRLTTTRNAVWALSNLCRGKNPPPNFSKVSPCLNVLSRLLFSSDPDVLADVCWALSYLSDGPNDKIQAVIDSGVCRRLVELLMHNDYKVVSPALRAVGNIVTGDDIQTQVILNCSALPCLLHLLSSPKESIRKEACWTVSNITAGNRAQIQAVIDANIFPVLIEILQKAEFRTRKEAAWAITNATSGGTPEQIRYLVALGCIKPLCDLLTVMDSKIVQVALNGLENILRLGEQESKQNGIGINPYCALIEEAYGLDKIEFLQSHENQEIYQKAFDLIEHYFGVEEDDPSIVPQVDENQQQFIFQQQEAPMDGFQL

Tests used:
INF2 ΔInter mutant = INF2 ΔInter mutant (UniProt Q27J81); assay: co-IP; 293T cells co-transfected with the two plasmids; cell lysates precipitated with anti-FLAG antibody; Western blot
INF2 ΔSBC mutant = INF2 ΔSBC mutant (UniProt Q27J81); assay: as above
[1] = biological target: FLAG-SPOP-ΔNLS (lentivirus, DU145) (UniProt O43791); assay: co-IP; DU145 cells infected with lentivirus expressing FLAG-SPOP (WT or ΔNLS) or control; anti-FLAG antibody; endogenous INF2 by Western blot
SPOP-F125V-ΔNLS [2] = biological target: SPOP-F125V-ΔNLS (UniProt O43791); assay: co-IP; 293T cells transfected with SPOP constructs; anti-FLAG antibody; endogenous KPNA5 by Western blot
SPOP-F133L-ΔNLS [3] = biological target: SPOP-F133L-ΔNLS (UniProt O43791); assay: as above
SPOP-ΔNLS (293T) [4] = biological target: SPOP-ΔNLS (293T) (UniProt O43791); assay: as above
SPOP-F125V-ΔNLS [5] = biological target: SPOP-F125V-ΔNLS (UniProt O43791); assay: co-IP; 293T cells co-transfected with the two plasmids; cell lysates precipitated with anti-FLAG antibody; Western blot
SPOP-F133L-ΔNLS [6] = biological target: SPOP-F133L-ΔNLS (UniProt O43791); assay: as above
SPOP-ΔNLS (293T) [7] = biological target: SPOP-ΔNLS (293T) (UniProt O43791); assay: as above

binding (INF2 ΔInter mutant): binds
binding (INF2 ΔSBC mutant): no binding
Substance: Myc-SPOP (from UniProt O43791 1-374)

binding [1]: binds
Substance: endogenous INF2 (DU145) (from UniProt Q27J81 1-1249)

binding (SPOP-F125V-ΔNLS [2]): no binding
binding (SPOP-F133L-ΔNLS [3]): no binding
binding (SPOP-ΔNLS (293T) [4]): no binding
Substance: endogenous KPNA5 (293T) (from UniProt O15131 1-539)

binding (SPOP-F125V-ΔNLS [5]): no binding
binding (SPOP-F133L-ΔNLS [6]): no binding
binding (SPOP-ΔNLS (293T) [7]): no binding
Substance: overexpressed KPNA5 (from UniProt O15131 1-539)
